No constants are given. Whether binding was seen depends on the method and setting. A result given as binding can be weak or reduced; the word gives no strength.

Our source for the binding values is paper PMC12102759.

The target of the assay is GST-tagged PP2A B56 regulatory subunit (1–486) (human). Description: peptide phage display selection with NGS; only the target purified.

Turning to SGYLPTLNEDEEWKCDQD [AXIN1 235–252 peptide on M13 phage], the binding result was “binds”.
For KKPLLSPIPELPEVPEMT [CDCA2 586–603 peptide on M13 phage] the value was “binds”.
